“And” between values parts separate entries of the source, which are not always exact repeats. Equal values may be shown once.
Key:
[1] = tested on: mitochondrial apoptosis-induced channel (MAC); test: Patch clamp of MAC in proteoliposomes containing mitochondrial outer membranes of apoptotic FL5.12 cells; assay type: biochemical, mouse; conditions: 150 mM KCl 5 mM HEPES pH 7.4, read-out: IC50 for blockade of MAC (inhibition of conductance)
Protocol: Hematopoietic FL5.12 cells are a mouse leukemia cell line that enters apoptosis after withdrawal of the growth factor interleukin-3 (IL-3) (Gross, A., Jockel, […]. and Korsmeyer, S. J. (1998). Parental FL5.12 cells were cultured as previously described (Gross, A., Jockel, […]. and Korsmeyer, S. J. (1998) EMBO J. 17, 3878-85) in Iscove's Modified Eagle Media (IMEM), 10% Fetal Bovine Serum, 10% WEHI-3B supplement (filtered supernatant of WEHI-3B cells secreting IL-3). Cultures were kept below 1.5 million cells/ml. Cells were washed three times in media without IL-3 (WEHI supplement) to induce apoptosis twelve hours prior to the isolation of mitochondria (Zamzami, N., Susin, […]., Gomez-Monterrey, I., Castedo, M. and Kroemer, G. (1996). Mitochondrial control of nuclear apoptosis. Journal of Experimental Medicine. 183, 1533-44; Mootha, V., Wei, M., Buttle, K., Scorrano, L., Panoutsakopoulou, […]. and Korsmeyer, S. (2001). A reversible component of mitochondrial respiratory dysfunction in apoptosis can be rescued by exogenous cytochrome c. […]

MCC = conditions: read-out: IC50 for block of MCC; cited from earlier work

- IC50 [1]: 52 µM and ~50 µM
Structure (SMILES): CC(C)NCC(O)COc1cccc2ccccc12 (centres unmarked) [propranolol]
- IC50 (MCC): ~700 µM
